Several values for one entry are separate records, joined by “and”; a condition that tells them apart may be missing. Equal entries are not always repeated. The list shows a part of the results. Repeats in this data set agree poorly, so a single value says little.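 Fusion between ACE2-bearing and full-length-spike-bearing U2OS cells was measured by imaging as the percentage of nuclei with both cell types' fluorescent markers. An inhibitory hit is a non-toxic compound whose fusion z-score is below -3, more than three standard deviations beneath the plate's DMSO wells.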

The experiment has as its system U2OS ACE2 x SARS-CoV-2 spike co-culture. The experiment in a line: cell-cell fusion (fraction fused) z-score vs plate DMSO control; higher = more fusion. The settings on record: 30 µM; 5 h; toxicity class: non-toxic, passed QC.
Regarding `COC(=O)N[C@@H](C)CNc1nccc(-c2cn(C(C)C)nc2-c2cc(Cl)cc(NS(C)(=O)=O)c2F)n1` [Encorafenib], the “cell-cell fusion (z-score)” value is inactive: 0.608. With `CO[C@H]1[C@@H](O)[C@@H](C)O[C@H](O[C@H]2CCC3(C)C4CCC5(C)[C@@H](C6=CC(=O)OC6)CC[C@]5(O)[C@@H]4CC[C@]3(O)C2)[C@@H]1O` (some centres undefined) the figure was inactive: 1.46; with `Cc1cc(-c2ccccc2)nnc1NCCN1CCOCC1.Cl.Cl`, inactive: 1.41. `O=C(CCCc1ccccc1)[O][Na]` [4-Phenylbutyrate]: the “cell-cell fusion (z-score)” value was inactive: 2.28.

On to `CCCCS(=N)(=O)CCC(N)C(=O)O` (racemic) [DL-Buthionine-[S,R]-sulfoximine], for which the “cell-cell fusion (z-score)” value was inactive: 0.522. In the case of `CCCCCCCCCCCC[C@H](C(=O)O)[C@@H](C)C(=O)O` it was inactive: 1.75; in that of `COC1=C(OC)C(=O)C(C/C=C(\C)CC/C=C(\C)CC/C=C(\C)CC/C=C(/C)CC/C=C(\C)CC/C=C(\C)CC/C=C(\C)CC/C=C(\C)CC/C=C(\C)CCC=C(C)C)=C(C)C1=O`, inactive: 1.14; in that of `CC(C)=CCC/C(C)=C/CC/C(C)=C/CC/C(C)=C/CC/C(C)=C/CC/C(C)=C/CC/C(C)=C/CC/C(C)=C/CC/C(C)=C/CO`, inactive: 1.48. Consider `CC[C@@H]1OC(=O)C[C@@H](O)[C@H](C)[C@@H](O[C@@H]2O[C@H](C)[C@@H](O)[C@H](N(C)C)[C@H]2O)[C@@H](CCN2C[C@H](C)C[C@H](C)C2)C[C@@H](C)C(=O)/C=C/C(C)=C\[C@@H]1CO[C@@H]1O[C@H](C)[C@@H](O)[C@@H](OC)[C@H]1OC`, for which the “cell-cell fusion (z-score)” value is inactive: 3.06. Take `O=C([O-])CCSC[C@H]1O[C@@H]2O[C@H]3[C@H](O)[C@@H](O)[C@@H](O[C@H]4[C@H](O)[C@@H](O)[C@@H](O[C@H]5[C@H](O)[C@@H](O)[C@@H](O[C@H]6[C@H](O)[C@@H](O)[C@@H](O[C@H]7[C@H](O)[C@@H](O)[C@@H](O[C@H]8[C@H](O)[C@@H](O)[C@@H](O[C@H]9[C@H](O)[C@@H](O)[C@@H](O[C@H]1[C@H](O)[C@H]2O)O[C@@H]9CSCCC(=O)[O-])O[C@@H]8CSCCC(=O)[O-])O[C@@H]7CSCCC(=O)[O-])O[C@@H]6CSCCC(=O)[O-])O[C@@H]5CSCCC(=O)[O-])O[C@@H]4CSCCC(=O)[O-])O[C@@H]3CSCCC(=O)[O-].[Na+].[Na+].[Na+].[Na+].[Na+].[Na+].[Na+].[Na+]` [Sugammadex (sodium)]: the “cell-cell fusion (z-score)” value was inactive: 2.68. As to `CC/C=C\C/C=C\C/C=C\C/C=C\C/C=C\CCCC(=O)OCC` [OMEGA-3-ACID ESTERS (EPA shown)], the “cell-cell fusion (z-score)” value is inactive: 2.13. With `O=C(O)CCC(=O)c1ccc(-c2ccccc2)cc1` the figure was inactive: 2.67. With `CCc1cc(C(N)=S)ccn1`, the “cell-cell fusion (z-score)” value was inactive: 2.56.

In the case of `C[C@H]1O[C@@H](n2cc(F)c(=O)[nH]c2=O)[C@H](O)[C@@H]1O` [5-fluoro-5'-deoxyuridine], the “cell-cell fusion (z-score)” value was inactive: 4.29.

For `CC(=O)OCC(COC(C)=O)OC(C)=O` [Triacetin], the “cell-cell fusion (z-score)” value is inactive: 3.41. In the case of `CCCCN1CCCCC1C(=O)Nc1c(C)cccc1C.Cl` (centres undefined) [Bupivacaine hydrochloride] it was inactive: 5.22; in that of `C/C=C1\[C@H]2C=C(C)C[C@]1(N)c1ccc(=O)[nH]c1C2`, inactive: 2.29. With `CCC(C)C(=O)O[C@H]1C[C@H](O)C=C2C=C[C@H](C)[C@H](CC[C@@H](O)C[C@@H](O)CC(=O)[O-])C21.[Na+]` (some centres undefined) the figure was inactive: 2; with `Nc1cc(O)nc(N)n1` [2,4-Diamino-6-pyrimidinone], inactive: 1.4; with `CC(=O)OCC1=C(C(=O)[O-])N2C(=O)[C@@H](NC(=O)Cc3cccs3)[C@H]2SC1.[Na+]` [Cephalothin sodium], inactive: 2.16.

As to `CCCCC(CC)CNC(=N)NC(=N)NCCCCCCNC(=N)NC(=N)NCC(CC)CCCC.Cl.Cl` (centres undefined), the “cell-cell fusion (z-score)” value was active: -12.2. As to `CS(=O)(=O)c1cccc(CNc2nc(Nc3ccc4c(c3)CCC(=O)N4)ncc2C(F)(F)F)c1`, the “cell-cell fusion (z-score)” value is inactive: 1.55 and inactive: -1.44. With `Cn1ncnc1[C@H]1C2=c3c(cc(F)cc3=N[C@@H]1c1ccc(F)cc1)C(=O)NN2` [Talazoparib], the “cell-cell fusion (z-score)” value was inactive: 0.947. With `CC(C)(Oc1ccc(Cl)cc1)C(=O)O` the figure was inactive: 1.09; with `CNCCC(Oc1ccccc1C)c1ccccc1` (centres undefined) [Tomoxetine], inactive: 2.69; with `Cl.N=C(N)NC(=N)NCCc1ccccc1` [Phenformin HCl], inactive: 0.013. Take `CN1CCN(CC(=O)N2c3ccccc3C(=O)Nc3cccnc32)CC1.Cl.Cl` [Pirenzepine dihydrochloride]: the “cell-cell fusion (z-score)” value is inactive: -1.01. With `Cl.c1cncc(C2CCCCN2)c1` (centres undefined) the figure was inactive: 1.69.

Turning to `O=C(NC1CCCCC1)NC1CCCCC1`, the “cell-cell fusion (z-score)” value was inactive: 0.174. In the case of `COc1c2ccoc2cc2oc(=O)ccc12` it was inactive: 2.87.

In the case of `COC(=O)C1=C(C)NC(C)=C([N+](=O)[O-])C1c1ccccc1C(F)(F)F` (racemic), the “cell-cell fusion (z-score)” value was inactive: 2.52. On to `Cl.CN(C)CC\C=C1\c2ccccc2CCc2ccccc12` [Amitriptyline hydrochloride], for which the “cell-cell fusion (z-score)” value was inactive: 0.838. In the case of `NC(=O)SC[C@H](N)C(=O)O`, the “cell-cell fusion (z-score)” value is inactive: 2.89. With `CC1=C(CC(=O)O)c2cc(F)ccc2/C1=C\c1ccc(S(C)=O)cc1` (centres undefined) [Sulindac] the figure was inactive: 1.12; with `CC1=C(CC(=O)O)c2cc(F)ccc2/C1=C\c1ccc(S(C)=O)cc1` (centres undefined), inactive: 1.09; with `C/C=C(/C(=C/C)c1ccc(O)cc1)c1ccc(O)cc1` [Dienestrol], inactive: 4.02. In the case of `Nc1ccc(S(=O)(=O)[O-])cc1.Nc1ccc(S(=O)(=O)[O-])cc1.[Zn+2]`, the “cell-cell fusion (z-score)” value is inactive: 1.7. With `C=CCOC(Cn1ccnc1)c1ccc(Cl)cc1Cl.O=S(=O)(O)O` (centres undefined) the figure was inactive: -0.747.

Regarding `CC(C)Nc1cccnc1N1CCN(C(=O)c2cc3cc(NS(C)(=O)=O)ccc3[nH]2)CC1.CS(=O)(=O)O` [Delavirdine (mesylate)], the “cell-cell fusion (z-score)” value is inactive: 1.01.

Values taken from the supplement of paper PMC8104966.
